Earlier results in patent US8969295B2, “Identifying and modulating molecular pathways that mediate nervous system plasticity” (Massachusetts Institute of Technology, priority 2006, dated 2015).
Some of these results come from one statement about several compounds together. At least one structure is not confirmed: it was looked up by name or label, or the drawing left a doubt.

Tested on: cGMP
Conditions: Nishiyama et al., 2003; cited from earlier work

Nc1nc2c(ncn2[C@@H]2O[C@@H]3COP(O)(=S)O[C@H]3[C@H]2O)c(=O)[nH]1 (stereo partly shown) [Rp-cGMPs]
Effective doses on neurite growth and dynamics in brain slices: 10 to 100 µM
